PubChem BioAssay AID504744 – Drosophila RNAi Screening Center, 2011
Test: 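Identify dsRNAs that increase or decrease phospho-dAkt after insulin treatment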 (primary screen). Cell system: Drosophila Kc167 cells. Reagent: long dsRNA against Drosophila genes, 250 ng dsRNA per well of a 384-well plate. Timing: 3 days of knock-down, then overnight serum-free starvation before stimulation. Challenge: bovine insulin at 387 nM for 10 minutes after 12 h without serum. Measurement: 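In-cell antibody fluorescence for phospho-dAkt in each well over DNA-dye signal, with log2 residuals expressed as z-scores adjusted for cell count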. Hit rule: 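Hit in the insulin screen when the two-replicate mean z-score is more extreme than plus or minus 2.5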.
In all, the deposit lists about 23,000 reagents; below is a random part of those with a known target gene and a result. Of all reagents, 98 (0.43%) got an active call. 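Only hit calls are given; the phospho-dAkt signals, z-scores and hit direction were not deposited.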

beta4GalT7 [DRSC14385] | Call: inactive
CG15124 [DRSC06546] | Call: inactive
CG10301 [DRSC14226] | Call: active
CG6484 [DRSC06991] | Call: inactive
l(3)76BDm [DRSC11047] | Call: inactive
Taf7 [DRSC15445] | Call: inactive
CG34125 [DRSC00850] | Call: inactive
Cpr64Ab [DRSC08461] | Call: inactive
Acox57D-p [DRSC04560] | Call: inactive
Pde8 [DRSC04503] | Call: inactive
ItgaPS4 [DRSC06630] | Call: inactive
Gp93 [DRSC15827] | Call: inactive
CG30457 [DRSC06661] | Call: inactive
Apoltp [DRSC02508] | Call: inactive
Girdin [DRSC08292] | Call: inactive

The list goes on (2 carried over from the part before).
Apoltp [DRSC02508] | Call: inactive
Girdin [DRSC08292] | Call: inactive
dally [DRSC08954] | Call: inactive
dally [DRSC11338] | Call: inactive
Tim8 [DRSC20291] | Call: inactive
CG5382 [DRSC15786] | Call: inactive
CG32750 [DRSC18848] | Call: inactive
CG15219 [DRSC03715] | Call: inactive
Pcmt [DRSC12363] | Call: inactive
fd96Cb [DRSC16947] | Call: inactive
